Results of single-concentration screens

Amino acid sequences for entries named in this document (tags omitted). Residues count along the entry.
UniProt P9WNZ1, whole entry: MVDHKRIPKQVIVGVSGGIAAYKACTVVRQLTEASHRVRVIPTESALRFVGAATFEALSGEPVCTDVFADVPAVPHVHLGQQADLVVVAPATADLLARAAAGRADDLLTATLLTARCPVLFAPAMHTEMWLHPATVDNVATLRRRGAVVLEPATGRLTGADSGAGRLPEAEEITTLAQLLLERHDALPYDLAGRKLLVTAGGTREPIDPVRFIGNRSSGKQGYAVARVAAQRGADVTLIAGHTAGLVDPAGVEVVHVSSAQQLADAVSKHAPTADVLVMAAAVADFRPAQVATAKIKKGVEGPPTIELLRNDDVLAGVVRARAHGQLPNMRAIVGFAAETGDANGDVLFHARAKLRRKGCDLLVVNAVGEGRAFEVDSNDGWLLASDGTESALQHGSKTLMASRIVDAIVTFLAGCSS
UniProt I6X8D2, whole entry: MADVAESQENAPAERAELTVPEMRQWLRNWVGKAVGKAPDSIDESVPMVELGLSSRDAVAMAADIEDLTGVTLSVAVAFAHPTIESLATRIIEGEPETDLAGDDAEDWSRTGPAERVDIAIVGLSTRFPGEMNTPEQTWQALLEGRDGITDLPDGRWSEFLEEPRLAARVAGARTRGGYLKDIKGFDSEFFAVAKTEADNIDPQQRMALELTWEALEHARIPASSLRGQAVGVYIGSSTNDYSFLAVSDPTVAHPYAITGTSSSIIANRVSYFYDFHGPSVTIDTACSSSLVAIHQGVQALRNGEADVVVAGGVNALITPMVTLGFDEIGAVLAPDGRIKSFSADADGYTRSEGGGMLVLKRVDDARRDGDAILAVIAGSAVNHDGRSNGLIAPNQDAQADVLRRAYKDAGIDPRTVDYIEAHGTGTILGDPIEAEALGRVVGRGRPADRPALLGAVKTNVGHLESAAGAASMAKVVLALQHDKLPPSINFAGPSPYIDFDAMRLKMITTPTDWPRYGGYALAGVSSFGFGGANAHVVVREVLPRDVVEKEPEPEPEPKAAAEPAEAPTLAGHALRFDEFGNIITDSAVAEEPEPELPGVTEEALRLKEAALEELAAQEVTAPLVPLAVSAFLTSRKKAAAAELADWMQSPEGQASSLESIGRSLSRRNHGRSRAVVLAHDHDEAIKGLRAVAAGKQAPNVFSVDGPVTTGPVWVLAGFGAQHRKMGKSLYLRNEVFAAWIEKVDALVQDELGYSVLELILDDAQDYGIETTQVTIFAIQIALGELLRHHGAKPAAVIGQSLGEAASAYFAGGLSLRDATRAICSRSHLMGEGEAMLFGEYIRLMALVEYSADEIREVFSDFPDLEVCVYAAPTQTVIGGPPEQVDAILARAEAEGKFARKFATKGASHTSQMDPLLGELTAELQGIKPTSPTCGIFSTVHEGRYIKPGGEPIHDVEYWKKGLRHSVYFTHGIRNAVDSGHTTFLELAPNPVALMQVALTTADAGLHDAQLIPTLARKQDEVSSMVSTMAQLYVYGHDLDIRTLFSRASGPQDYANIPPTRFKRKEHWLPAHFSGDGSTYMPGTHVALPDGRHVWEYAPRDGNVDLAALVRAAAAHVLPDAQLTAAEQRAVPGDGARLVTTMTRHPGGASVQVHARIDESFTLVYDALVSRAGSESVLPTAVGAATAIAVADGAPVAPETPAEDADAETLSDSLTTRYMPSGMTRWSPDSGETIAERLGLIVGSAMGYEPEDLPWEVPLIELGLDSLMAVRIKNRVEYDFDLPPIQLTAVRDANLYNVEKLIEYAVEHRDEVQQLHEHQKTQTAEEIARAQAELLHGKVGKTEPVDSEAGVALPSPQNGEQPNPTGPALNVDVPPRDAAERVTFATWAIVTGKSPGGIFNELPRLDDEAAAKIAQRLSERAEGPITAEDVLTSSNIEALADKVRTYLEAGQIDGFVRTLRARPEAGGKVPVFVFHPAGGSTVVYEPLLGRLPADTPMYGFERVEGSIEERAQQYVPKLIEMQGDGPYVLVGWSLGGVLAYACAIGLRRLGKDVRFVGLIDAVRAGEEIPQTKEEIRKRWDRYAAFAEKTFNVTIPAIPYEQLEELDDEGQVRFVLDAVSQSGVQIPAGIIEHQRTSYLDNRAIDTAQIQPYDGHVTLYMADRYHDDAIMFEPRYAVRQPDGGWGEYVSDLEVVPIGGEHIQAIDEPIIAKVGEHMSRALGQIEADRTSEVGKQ
UniProt P9WPC5, whole entry: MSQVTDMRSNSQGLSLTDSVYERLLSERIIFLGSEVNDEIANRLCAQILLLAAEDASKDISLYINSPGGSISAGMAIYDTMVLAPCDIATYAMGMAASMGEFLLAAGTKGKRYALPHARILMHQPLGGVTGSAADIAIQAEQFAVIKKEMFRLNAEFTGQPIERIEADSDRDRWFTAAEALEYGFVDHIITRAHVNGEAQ
UniProt P9WPC3, whole entry partner: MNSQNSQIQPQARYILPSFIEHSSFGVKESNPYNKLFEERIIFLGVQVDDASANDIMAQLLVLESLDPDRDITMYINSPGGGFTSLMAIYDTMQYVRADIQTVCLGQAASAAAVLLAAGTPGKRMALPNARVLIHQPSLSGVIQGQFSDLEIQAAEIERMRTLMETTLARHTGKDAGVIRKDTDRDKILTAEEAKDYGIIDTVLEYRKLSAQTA
UniProt Q4DA54, 1-478: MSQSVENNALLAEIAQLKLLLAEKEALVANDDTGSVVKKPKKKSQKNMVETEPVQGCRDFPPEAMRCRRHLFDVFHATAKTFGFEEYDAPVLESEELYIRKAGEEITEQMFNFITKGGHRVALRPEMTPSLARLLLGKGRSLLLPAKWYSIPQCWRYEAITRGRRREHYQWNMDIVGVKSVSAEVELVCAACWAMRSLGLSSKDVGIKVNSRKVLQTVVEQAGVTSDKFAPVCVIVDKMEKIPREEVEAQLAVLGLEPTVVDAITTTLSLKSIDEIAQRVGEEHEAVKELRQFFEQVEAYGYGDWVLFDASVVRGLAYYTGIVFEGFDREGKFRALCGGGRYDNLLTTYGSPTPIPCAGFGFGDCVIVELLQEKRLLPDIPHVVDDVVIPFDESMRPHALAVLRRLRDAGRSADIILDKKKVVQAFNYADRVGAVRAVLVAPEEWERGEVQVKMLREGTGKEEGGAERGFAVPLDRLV

From ChEMBL document CHEMBL3988442, “University of Dundee, Small-Polar-MMV Screening Library” (2021).

Results are given as percent effect.
How 0% and 100% were set is not recorded. Most values in the screen are low, and negative values occur.
Compounds were drawn at random from those tested, without regard to their results.
Two or more numbers in one place are separate tests of the same structure; such repeats can differ widely.
A dash means the value is not listed here; it may have been measured.

CoaBC: 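Enzyme assay of CoaBC with a phosphate dye (Biomol Green) read at 650 nm. Target: Coenzyme A biosynthesis protein CoaBC, Mycobacterium tuberculosis (UniProt P9WNZ1). Compounds at 30 µM. Direction is inferred from only a few compounds that gave an IC50; most scored high, so higher reads as stronger inhibition. Most strong results did not repeat in a second test. Of about 67,000 compounds tested this way, about 40 (0.06%) reached 50% or more in at least one test.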
Leishmania in macrophages: 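Cell assay of Leishmania donovani living inside macrophages; the read-out is not stated. Tested at 30 µM. Direction is inferred from retests: higher values go with stronger inhibition. About 69,000 compounds were tested under these conditions; 1.5% (about 1,000) showed 50% or more at least once.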
Pks13 thioesterase: 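Polyketide synthase Pks13, Mycobacterium tuberculosis (UniProt I6X8D2). Enzyme assay of the thioesterase domain of polyketide synthase 13; the read-out is not stated. Compounds at 30 µM. The record gives no direction; the compounds picked for IC50 retests had high values, so higher reads as stronger inhibition. Of about 67,000 compounds tested this way, about 300 (0.46%) reached 50% or more in at least one test.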
ClpP1P2: 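Protease assay of ClpP1P2, read by the AMC dye that it sets free. Target: ClpP1P2, Mycobacterium tuberculosis (UniProt P9WPC5 and UniProt P9WPC3). Concentration: 50 µM. Higher reads as stronger inhibition, judged from the few compounds that gave an IC50. Most other retested compounds had strongly negative values. About 69,000 compounds were tested under these conditions; 0.015% (about 10) showed 50% or more at least once.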
TcHisRS: 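Histidine-tRNA ligase, Trypanosoma cruzi CL Brener (UniProt Q4DA54). Enzyme assay of histidyl-tRNA synthetase; the read-out is not stated. Tested at 30 µM. The record gives no direction; compounds that gave an IC50 in retests scored well above the rest, so higher reads as stronger inhibition. Size under these conditions: about 69,000 compounds, about 31 of them at 50% or above in at least one test.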

compound	CoaBC	Leishmania in macrophages	Pks13 thioesterase	ClpP1P2	TcHisRS
Cc1cc(F)c(S(=O)(=O)Nc2ccn(CCC#N)n2)cc1F	1.519%	16.28% & 1.237%	-4.273%	-7.259%	7.317%
OCCN1CCN(CCOCC(F)(F)F)CC1	-0.2296%	3.133%	-8.608%	21.37%	9.231%
CN(Cc1cccnc1)Cc1cncc2c1CCN(c1ccccn1)C2.Cl.Cl.Cl	-	2.095%	-	-	-
Cc1ncc2c(c1C(=O)O)CCN(c1ncc(F)cn1)C2	0%	-	-25.37%	-29.56%	6.952%
O=C(CCc1ccccn1)N1CCCC1	2.872%	-19.67%	-7.395%	-24.14%	6.122%
CC(C)NC(=O)CN(C)C1CCN(c2ccc(Cl)cn2)CC1	-0.8464%	3.396%	-5.372%	3.785%	0.6494%
Oc1cc(CNCCN2CCCCC2)nc2c(F)cccc12	-6.157%	30.91%	-5.153%	-3.202%	2.4%
COc1ccccc1CCNC(=O)C1CCC(Cn2cnnn2)CC1 (centres undefined)	0.7576%	6.497%	-9.905%	-4.741%	7.602%
Cc1cc(-c2nn(C)c(Cl)c2CN2CCOCC2CC(=O)O)no1 (centres undefined)	4.386%	23.28%	-	-1.164%	-3.306%
Cc1nn(C)c2c(=O)n(C(C)C)c(NCC3CCCO3)nc12 (centres undefined)	4.698%	13.11%	0.4881%	-3.89%	8.247%
CCn1c(NCc2ccccn2)nc2c(C)nn(C)c2c1=O	4.233% & 20.09%	16.24%	-5.132%	-4.989%	1.739%
N#Cc1ncn(Cc2c(F)cccc2Cl)n1	3.398%	10.51%	-13.86%	4.183%	6.077%
NCCc1c(-c2ccc(F)cc2)[nH][nH]c1=O	2.368%	29.79%	-5.782%	-28.74%	1.775%
CC(C)C(C(=O)N(C)C)c1cccc(Cl)c1 (centres undefined)	0.3686%	23.26%	7.575%	-11.4%	1.19%
CN1CC2(CCN(Cc3cccnc3)CC2)c2cccc(F)c21.Cl	-	-2.636%	-	-	-
CN(C)Cc1cc(C2CCN(C(=O)C3CCCNC3)CC2)nn1C (centres undefined)	1.142%	-	-4.275%	-21.64%	4.286%
COCCN1C(=O)C[C@H]2[C@H]1CCN2Cc1ccc(OC)cc1	16.84%	-	-19.16%	-1.469%	6.011%
CNCC(=O)N1CCCC1c1cncc(Oc2ccc(F)cc2)n1.Cl (centres undefined)	-	5.706% & 10.22%	-	-	-
CCc1nsc(N2CCC3(CC2)OCCO3)n1	7.09%	26.54%	-25.43%	-10.97%	4.124%
Cn1ncc(NCc2cccc(F)c2)c(Cl)c1=O	2.611%	13.08%	-7.8%	-16.63%	5.65%
CN(C)C(=O)CCC[S+]([O-])Cc1ccc(F)c(F)c1 (centres undefined)	12.21%	-6.393%	3.225%	2.043%	-3.409%
CCN1CCN(C)C(=O)C12CCN(Cc1cccc(C)c1)CC2	4.326%	-	-28.83%	0.6583%	1.942%
CCO[C@@H]1C[C@H]2CN(Cc3ccc(C)o3)CCN2C1	1.932%	-	-12.16%	6.655%	4.516%
CCc1c(C(=O)O)nnn1-c1ccc(C)cc1C	0.3645%	-2.067%	-18.63%	19.45%	10.89%
Cc1cc(C(C)C(=O)N2CCCN(Cc3cscn3)CC2)c(C)o1 (centres undefined)	-6.649%	17.79%	-8.9%	29.97%	6.464%
O=C(O)C(F)(F)F.O=C(O)C(F)(F)F.[H][C@@]12CN(Cc3ccoc3)C[C@]1([H])C(=O)N(Cc1ccncc1)C2	-	5.869%	-	-	-
CCCC(C)NCc1cnc(-c2cccc(C)c2)nc1 (centres undefined)	4.39%	24.33%	-38.56%	12.64%	11.69%
Cc1cccc(NC2CCN(C(=O)Nc3cc(C)on3)CC2)n1	-1.542%	6.789%	-33.16%	5.061%	-0.7519%
Cc1nc(CN2CC3(CCN(c4ncccn4)C3)CC2=O)cs1.O=C(O)C(F)(F)F (centres undefined)	-	-26.15%	-	-	-
Cc1cc(SC(C)(C)C)ccc1NCC(=O)NC(N)=O	7.265%	15.14%	-21.4%	-14.79%	1.622%
Cc1ccc(C(=O)N(C)Cc2c(C)noc2C)c(=O)[nH]1	12.96%	-233.1%	-15.44%	6.219%	5.464%
CO[C@H]1CN(Cc2nc3ccccc3n2C)C[C@@]12CCCO2	4.785%	28.63%	-1.92%	-7.951%	8.812%
COCCCN1CCC(NC(=O)C2CC2)CC1	-2.788%	33.46%	-20.17%	-4.76%	2.041%
O=C(O)C(F)(F)F.[H][C@]12CCCC(N(C)Cc3cccs3)[C@@]1([H])CN(C(=O)c1cnoc1C)C2 (some centres undefined)	-	10.08%	-	-	-
CC(=O)N1CC2(CCN(S(=O)(=O)N(C)C)CC2)C2(CCNC2=O)C1 (centres undefined)	7.888%	-6.629%	-31.78%	-11.41%	-3.883%
CN1CCS(=O)(=O)[C@@H]2CCN(C(=O)c3ccccc3)CC[C@@H]21	0.9346%	-	-9.079%	-0.9785%	6.522%
CS(=O)(=O)N1CCN(CC(O)COc2ccc(Cl)cc2)CC1 (centres undefined)	2.35%	-8.773%	-3.725%	-36.63%	6.122%
CCCN1C[C@H](NC(=O)c2cccs2)[C@@H](c2ccc(OC)cc2)C1	-3.406%	12.49% & 28.66%	-2.34%	-2.262%	6.716%
CCCn1ccnc1-c1cccc(NC2CCOC2)c1 (centres undefined)	-0.1258%	17.86%	-7.795%	8.355%	5.357%

For reference, 2 entries once more:

{"compound": "Cn1ncc(NCc2cccc(F)c2)c(Cl)c1=O", "CoaBC": 2.611, "Leishmania in macrophages": 13.08, "Pks13 thioesterase": -7.8, "ClpP1P2": -16.63, "TcHisRS": 5.65}
{"compound": "CC(=O)N1CC2(CCN(S(=O)(=O)N(C)C)CC2)C2(CCNC2=O)C1", "stereo": "centres undefined", "CoaBC": 7.888, "Leishmania in macrophages": -6.629, "Pks13 thioesterase": -31.78, "ClpP1P2": -11.41, "TcHisRS": -3.883}